Test results as given in the supplement of paper PMC5836539.
± gives the standard deviation of the averaged measurements. Single values are uncertain here, since repeats match poorly.

The chains behind the UniProt entries cited, without tags or fusion partners. Where a name states a change or a piece, a line headed by the entry shows the natural chain unless it says otherwise.
UniProt Q9NRD1: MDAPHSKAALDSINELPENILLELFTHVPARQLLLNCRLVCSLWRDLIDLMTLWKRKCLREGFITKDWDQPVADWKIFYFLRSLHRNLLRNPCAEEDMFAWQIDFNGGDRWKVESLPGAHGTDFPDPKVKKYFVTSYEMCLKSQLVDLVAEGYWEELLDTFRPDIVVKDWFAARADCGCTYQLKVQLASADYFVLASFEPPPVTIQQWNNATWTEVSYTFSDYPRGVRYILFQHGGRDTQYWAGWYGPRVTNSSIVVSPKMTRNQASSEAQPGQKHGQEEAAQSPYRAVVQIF
UniProt O43353, whole entry, looked up: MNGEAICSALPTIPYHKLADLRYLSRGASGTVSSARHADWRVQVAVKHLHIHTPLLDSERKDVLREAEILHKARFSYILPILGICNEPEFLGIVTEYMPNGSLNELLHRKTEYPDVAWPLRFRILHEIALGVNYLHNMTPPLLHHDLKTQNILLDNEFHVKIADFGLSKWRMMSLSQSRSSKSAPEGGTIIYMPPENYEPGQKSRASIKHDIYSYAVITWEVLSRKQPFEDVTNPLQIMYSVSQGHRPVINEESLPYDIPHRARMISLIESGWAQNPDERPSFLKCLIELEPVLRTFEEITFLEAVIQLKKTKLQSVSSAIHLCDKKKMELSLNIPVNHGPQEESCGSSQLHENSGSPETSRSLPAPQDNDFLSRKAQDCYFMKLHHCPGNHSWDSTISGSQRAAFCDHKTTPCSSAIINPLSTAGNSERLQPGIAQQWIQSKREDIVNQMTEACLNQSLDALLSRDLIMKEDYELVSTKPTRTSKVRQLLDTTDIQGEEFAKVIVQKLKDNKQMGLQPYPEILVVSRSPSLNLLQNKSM
UniProt Q68DA7: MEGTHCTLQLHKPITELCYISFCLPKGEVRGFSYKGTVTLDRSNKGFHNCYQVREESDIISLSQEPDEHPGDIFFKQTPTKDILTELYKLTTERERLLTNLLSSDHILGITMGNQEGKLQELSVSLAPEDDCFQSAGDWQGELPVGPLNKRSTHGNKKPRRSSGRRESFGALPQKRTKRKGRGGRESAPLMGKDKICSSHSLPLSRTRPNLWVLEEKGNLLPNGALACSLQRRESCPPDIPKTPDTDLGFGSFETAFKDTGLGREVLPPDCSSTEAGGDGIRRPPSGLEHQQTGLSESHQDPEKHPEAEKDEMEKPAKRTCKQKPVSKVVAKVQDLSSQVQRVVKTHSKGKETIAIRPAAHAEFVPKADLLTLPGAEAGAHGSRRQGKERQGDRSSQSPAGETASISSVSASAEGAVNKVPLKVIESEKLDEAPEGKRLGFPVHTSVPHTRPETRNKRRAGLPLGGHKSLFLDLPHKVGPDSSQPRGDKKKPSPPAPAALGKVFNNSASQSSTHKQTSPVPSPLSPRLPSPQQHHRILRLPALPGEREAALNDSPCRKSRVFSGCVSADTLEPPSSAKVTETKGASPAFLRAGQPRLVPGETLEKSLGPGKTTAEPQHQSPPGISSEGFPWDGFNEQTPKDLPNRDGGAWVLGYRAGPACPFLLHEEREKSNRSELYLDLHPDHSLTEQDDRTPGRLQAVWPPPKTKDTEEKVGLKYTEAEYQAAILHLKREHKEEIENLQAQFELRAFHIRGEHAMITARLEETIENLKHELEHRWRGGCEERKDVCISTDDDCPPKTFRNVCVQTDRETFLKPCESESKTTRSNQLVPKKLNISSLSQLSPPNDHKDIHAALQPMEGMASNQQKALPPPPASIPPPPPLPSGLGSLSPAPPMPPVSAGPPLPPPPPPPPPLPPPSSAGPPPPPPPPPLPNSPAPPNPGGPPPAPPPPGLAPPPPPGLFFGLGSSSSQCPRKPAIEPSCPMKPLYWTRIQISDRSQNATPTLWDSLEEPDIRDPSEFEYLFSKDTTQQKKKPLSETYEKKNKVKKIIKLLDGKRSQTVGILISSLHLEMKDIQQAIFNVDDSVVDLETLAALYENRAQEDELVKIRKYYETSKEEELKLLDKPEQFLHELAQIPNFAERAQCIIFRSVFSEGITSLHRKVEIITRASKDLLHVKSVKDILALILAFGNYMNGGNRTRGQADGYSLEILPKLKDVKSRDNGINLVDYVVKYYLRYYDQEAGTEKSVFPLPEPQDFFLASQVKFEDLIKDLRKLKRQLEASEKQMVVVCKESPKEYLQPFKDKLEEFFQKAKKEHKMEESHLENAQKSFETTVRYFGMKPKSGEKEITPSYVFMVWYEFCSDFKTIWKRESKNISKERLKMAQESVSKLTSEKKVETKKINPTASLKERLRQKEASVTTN
UniProt Q9HDC5: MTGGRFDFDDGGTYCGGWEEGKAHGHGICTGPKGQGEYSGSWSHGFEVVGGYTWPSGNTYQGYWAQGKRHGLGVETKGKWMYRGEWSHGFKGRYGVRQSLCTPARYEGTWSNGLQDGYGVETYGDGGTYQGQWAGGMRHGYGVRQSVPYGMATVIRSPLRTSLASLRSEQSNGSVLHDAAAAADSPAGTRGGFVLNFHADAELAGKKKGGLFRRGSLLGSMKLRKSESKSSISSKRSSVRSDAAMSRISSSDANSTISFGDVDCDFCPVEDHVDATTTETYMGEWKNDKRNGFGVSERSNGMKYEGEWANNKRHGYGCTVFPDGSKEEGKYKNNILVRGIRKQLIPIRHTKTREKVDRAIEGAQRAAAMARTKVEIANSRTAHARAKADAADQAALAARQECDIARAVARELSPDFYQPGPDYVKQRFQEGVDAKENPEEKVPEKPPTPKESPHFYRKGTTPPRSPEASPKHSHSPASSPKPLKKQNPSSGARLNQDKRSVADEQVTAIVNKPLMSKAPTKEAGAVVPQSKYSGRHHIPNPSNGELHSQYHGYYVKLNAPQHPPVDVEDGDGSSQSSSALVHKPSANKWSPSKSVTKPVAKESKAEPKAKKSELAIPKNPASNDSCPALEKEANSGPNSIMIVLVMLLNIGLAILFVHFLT
UniProt P46821: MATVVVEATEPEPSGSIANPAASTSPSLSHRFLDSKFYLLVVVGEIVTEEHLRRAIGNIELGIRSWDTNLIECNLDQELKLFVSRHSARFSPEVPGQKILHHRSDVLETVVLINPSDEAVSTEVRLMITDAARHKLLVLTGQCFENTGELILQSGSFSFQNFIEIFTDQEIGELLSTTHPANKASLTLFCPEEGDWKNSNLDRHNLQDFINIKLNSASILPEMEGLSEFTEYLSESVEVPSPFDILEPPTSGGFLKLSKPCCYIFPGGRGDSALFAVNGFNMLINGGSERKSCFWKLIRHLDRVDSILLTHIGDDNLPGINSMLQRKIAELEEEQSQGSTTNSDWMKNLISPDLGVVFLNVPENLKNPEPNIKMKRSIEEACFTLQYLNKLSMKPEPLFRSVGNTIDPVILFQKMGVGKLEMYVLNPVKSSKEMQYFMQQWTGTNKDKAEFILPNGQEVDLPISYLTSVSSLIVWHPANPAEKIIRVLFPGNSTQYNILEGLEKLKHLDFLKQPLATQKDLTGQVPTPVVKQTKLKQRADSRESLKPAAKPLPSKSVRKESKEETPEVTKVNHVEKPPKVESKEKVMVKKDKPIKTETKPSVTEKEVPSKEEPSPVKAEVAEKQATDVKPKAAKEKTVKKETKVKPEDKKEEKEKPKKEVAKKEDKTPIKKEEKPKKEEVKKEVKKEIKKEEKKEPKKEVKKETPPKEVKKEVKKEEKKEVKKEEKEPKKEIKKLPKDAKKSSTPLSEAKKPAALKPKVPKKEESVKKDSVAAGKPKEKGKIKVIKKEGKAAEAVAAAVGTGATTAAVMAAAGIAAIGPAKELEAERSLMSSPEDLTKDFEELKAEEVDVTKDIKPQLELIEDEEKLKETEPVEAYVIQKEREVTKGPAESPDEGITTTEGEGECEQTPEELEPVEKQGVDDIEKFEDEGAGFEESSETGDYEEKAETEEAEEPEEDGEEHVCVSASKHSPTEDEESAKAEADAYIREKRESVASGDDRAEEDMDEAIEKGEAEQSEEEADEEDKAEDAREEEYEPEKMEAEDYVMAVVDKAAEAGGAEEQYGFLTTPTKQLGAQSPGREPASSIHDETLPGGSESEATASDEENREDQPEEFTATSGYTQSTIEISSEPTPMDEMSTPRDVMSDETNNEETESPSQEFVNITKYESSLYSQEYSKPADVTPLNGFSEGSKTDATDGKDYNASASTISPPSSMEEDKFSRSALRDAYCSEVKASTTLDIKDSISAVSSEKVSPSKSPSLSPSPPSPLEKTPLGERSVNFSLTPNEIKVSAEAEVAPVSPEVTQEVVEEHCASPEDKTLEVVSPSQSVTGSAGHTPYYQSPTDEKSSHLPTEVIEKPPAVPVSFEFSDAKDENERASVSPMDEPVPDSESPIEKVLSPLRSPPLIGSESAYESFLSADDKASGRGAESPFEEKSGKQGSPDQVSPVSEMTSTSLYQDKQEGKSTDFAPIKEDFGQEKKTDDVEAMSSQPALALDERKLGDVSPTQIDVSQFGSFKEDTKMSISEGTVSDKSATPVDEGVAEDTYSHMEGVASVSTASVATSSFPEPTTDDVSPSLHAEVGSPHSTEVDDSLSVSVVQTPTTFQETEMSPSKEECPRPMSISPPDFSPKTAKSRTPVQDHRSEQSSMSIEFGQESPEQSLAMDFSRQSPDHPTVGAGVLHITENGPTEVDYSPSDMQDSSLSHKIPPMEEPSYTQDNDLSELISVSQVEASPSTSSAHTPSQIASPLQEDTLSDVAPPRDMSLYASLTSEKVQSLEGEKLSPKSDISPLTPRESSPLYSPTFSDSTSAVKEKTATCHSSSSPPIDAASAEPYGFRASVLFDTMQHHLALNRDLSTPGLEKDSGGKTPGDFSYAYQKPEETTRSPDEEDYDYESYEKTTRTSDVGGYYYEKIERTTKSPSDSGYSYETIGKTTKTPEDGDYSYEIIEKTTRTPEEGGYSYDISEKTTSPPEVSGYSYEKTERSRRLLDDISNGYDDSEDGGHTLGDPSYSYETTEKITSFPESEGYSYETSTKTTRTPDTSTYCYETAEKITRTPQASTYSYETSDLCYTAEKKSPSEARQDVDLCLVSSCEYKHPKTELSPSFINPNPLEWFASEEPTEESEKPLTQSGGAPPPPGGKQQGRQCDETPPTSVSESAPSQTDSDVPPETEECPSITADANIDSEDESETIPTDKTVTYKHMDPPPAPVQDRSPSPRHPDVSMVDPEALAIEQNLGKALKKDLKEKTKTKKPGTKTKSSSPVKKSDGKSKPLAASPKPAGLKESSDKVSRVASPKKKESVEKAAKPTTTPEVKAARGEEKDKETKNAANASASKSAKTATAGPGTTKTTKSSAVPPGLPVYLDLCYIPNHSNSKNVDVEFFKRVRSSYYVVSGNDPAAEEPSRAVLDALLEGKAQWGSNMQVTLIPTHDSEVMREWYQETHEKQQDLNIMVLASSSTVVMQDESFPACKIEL
UniProt P47712: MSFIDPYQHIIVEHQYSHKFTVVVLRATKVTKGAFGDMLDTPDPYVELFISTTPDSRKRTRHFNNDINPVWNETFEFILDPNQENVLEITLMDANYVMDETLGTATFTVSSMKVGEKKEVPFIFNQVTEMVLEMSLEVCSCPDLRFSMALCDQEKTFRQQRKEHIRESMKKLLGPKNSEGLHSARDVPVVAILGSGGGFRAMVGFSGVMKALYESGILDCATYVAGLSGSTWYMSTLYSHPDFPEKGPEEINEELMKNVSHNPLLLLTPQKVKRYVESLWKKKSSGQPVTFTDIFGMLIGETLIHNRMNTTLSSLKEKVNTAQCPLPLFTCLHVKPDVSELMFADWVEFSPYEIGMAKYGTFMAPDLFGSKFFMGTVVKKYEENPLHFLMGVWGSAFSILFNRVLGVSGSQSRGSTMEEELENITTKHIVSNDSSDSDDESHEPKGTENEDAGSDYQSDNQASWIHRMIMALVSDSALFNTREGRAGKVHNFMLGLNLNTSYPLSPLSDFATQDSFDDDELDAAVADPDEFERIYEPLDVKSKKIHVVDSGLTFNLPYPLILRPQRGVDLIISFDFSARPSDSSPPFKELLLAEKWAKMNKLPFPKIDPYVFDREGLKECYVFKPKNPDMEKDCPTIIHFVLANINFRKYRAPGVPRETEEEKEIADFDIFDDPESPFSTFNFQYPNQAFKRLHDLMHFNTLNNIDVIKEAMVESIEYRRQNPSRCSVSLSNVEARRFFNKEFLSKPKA
UniProt Q3B726, whole entry, looked up: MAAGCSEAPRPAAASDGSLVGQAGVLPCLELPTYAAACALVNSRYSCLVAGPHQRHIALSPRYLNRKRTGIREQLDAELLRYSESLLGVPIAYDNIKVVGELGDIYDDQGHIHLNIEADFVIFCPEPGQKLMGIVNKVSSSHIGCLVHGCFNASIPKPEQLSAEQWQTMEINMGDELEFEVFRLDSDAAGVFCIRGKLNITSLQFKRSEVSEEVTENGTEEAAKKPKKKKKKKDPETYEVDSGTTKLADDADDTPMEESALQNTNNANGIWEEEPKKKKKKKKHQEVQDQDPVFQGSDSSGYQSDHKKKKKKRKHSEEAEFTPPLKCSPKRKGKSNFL

compound: CC[C@@H](C)Nc1cc(C(=O)N[C@H]2C[C@H]3CC[C@@H](C2)N3c2ccc(C(=O)C3CC3)cn2)c(C)cc1C(N)=O [XL888]; experiment: phosphopeptide melting temperature shift (XL888 minus DMSO); higher = stabilised by drug treatment; conditions: 100 µM; treatment time 2 h; layout: intact cells; SK-Mel 28
Description: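 Phospho-TPP in intact SK-Mel 28 cells treated with 100 uM XL888 or DMSO for 2 h, heated at 10 temperatures (37-67 C) for 3 min, soluble fraction TMT10plex-labelled and TiO2 phospho-enriched. Melting curves were fitted per phosphopeptide; the value is the melting point difference (drug minus vehicle) in each of two biological replicates.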

Target	phosphopeptide melting temperature shift [°C]
FBXO6 phosphosite_284 (phosphosite position: 284) (UniProt Q9NRD1)	0.586 ± 0.42
UniProt Q14157-4_phosphosite_447 (phosphosite position: 447)	2.47 ± 1.3
UniProt O75909-1_phosphosite_340 (phosphosite position: 340)	-0.0318
UniProt O43353-2_phosphosite_394 (phosphosite position: 394)	-2.23
UniProt Q9H6Z4-3_phosphosite_33 (phosphosite position: 33)	-1.37 ± 0.061
UniProt P36507_phosphosite_293 (phosphosite position: 293)	2.64
SMARCAD1 phosphosite_211 (phosphosite position: 211) (UniProt Q9H4L7)	0.57
CTDP1 phosphosite_872 (phosphosite position: 872) (UniProt Q9Y5B0)	-0.17
UBE4B phosphosite_1265 (phosphosite position: 1265) (UniProt O95155)	0.568 ± 1.4
UniProt Q9UDY2-3_phosphosite_221 (phosphosite position: 221)	-0.00426
AHNAK phosphosite_1452 (phosphosite position: 1452) (UniProt Q09666)	0.597
UniProt Q68DA7_phosphosite_620 (phosphosite position: 620)	0.39 ± 0.2
UniProt Q96HR8-2_phosphosite_315 (phosphosite position: 315)	-0.485 ± 1.4
NRBP2 phosphosite_22 (phosphosite position: 22) (UniProt Q9NSY0)	3.05 ± 0.67
UniProt Q5SYE7-2_phosphosite_1384 (phosphosite position: 1384)	4.64
NCK1 phosphosite_85 (phosphosite position: 85) (UniProt P16333)	1.55 ± 0.88
MVP phosphosite_873 (phosphosite position: 873) (UniProt Q14764)	-0.79 ± 0.67
UniProt O43166-3_phosphosite_1528 (phosphosite position: 1528)	0.718
UniProt Q9NZB2-4_phosphosite_383 (phosphosite position: 383)	-2.69 ± 2.1
UniProt Q9UHR5-2_phosphosite_18 (phosphosite position: 18)	5.4 ± 0.15
UniProt Q8TAP9_phosphosite_133 (phosphosite position: 133)	7.1
UniProt Q8WU79-3_phosphosite_139 (phosphosite position: 139)	-1.07
ACIN1 phosphosite_410 (phosphosite position: 410) (UniProt Q9UKV3)	-0.964

Target	phosphopeptide melting temperature shift [°C]
UniProt Q99543-2_phosphosite_63 (phosphosite position: 63)	0.576 ± 0.23
UniProt Q9H0E9-3_phosphosite_124 (phosphosite position: 124)	1.3 ± 4.1
BYSL phosphosite_98 (phosphosite position: 98) (UniProt Q13895)	0.907
CEBPZ phosphosite_629 (phosphosite position: 629) (UniProt Q03701)	1.76 ± 1.4
STXBP5 phosphosite_759 (phosphosite position: 759) (UniProt Q5T5C0)	0.901
DNMT1 phosphosite_714 (phosphosite position: 714) (UniProt P26358)	0.818 ± 0.56
TTC33 phosphosite_197 (phosphosite position: 197) (UniProt Q6PID6)	1.71 ± 1.2
NOC2L phosphosite_673 (phosphosite position: 673) (UniProt Q9Y3T9)	4.23
UniProt Q9BYW2-3_phosphosite_754 (phosphosite position: 754)	-0.0306
UniProt Q32MZ4-3_phosphosite_712 (phosphosite position: 712)	5.64
SRRM1 phosphosite_605 (phosphosite position: 605) (UniProt Q8IYB3)	0.647 ± 0.38
ANKS1A phosphosite_647 (phosphosite position: 647) (UniProt Q92625)	1.84 ± 0.65
JPH1 phosphosite_478 (phosphosite position: 478) (UniProt Q9HDC5)	0.963
UniProt Q66K74-2_phosphosite_705 (phosphosite position: 705)	-0.102 ± 0.85
MAP1B phosphosite_1797 (phosphosite position: 1797) (UniProt P46821)	0.616 ± 0.2
CCDC86 phosphosite_102 (phosphosite position: 102) (UniProt Q9H6F5)	2.99
STRN4 phosphosite_53 (phosphosite position: 53) (UniProt Q9NRL3)	0.788
DOCK5 phosphosite_1789 (phosphosite position: 1789) (UniProt Q9H7D0)	0.997
PLA2G4A phosphosite_437 (phosphosite position: 437) (UniProt P47712)	0.555 ± 0.4
UniProt Q5T1M5-2_phosphosite_969 (phosphosite position: 969)	1.17
UniProt Q05209-2_phosphosite_458 (phosphosite position: 458)	0.454 ± 0.56
UniProt Q9NTI5-2_phosphosite_1283 (phosphosite position: 1283)	0.498 ± 0.099
UniProt P78559_phosphosite_1203 (phosphosite position: 1203)	1.6

Target	phosphopeptide melting temperature shift [°C]
MICAL3 phosphosite_1371 (phosphosite position: 1371) (UniProt Q7RTP6)	1.54 ± 0.46
UniProt Q9H6T3-2_phosphosite_121 (phosphosite position: 121)	4.72 ± 3.4
DNAJC21 phosphosite_370 (phosphosite position: 370) (UniProt Q5F1R6)	2.02
UniProt Q5H9R7-2_phosphosite_524 (phosphosite position: 524)	0.506 ± 1.9
UniProt O43159_phosphosite_62 (phosphosite position: 62)	0.628 ± 5.8
UniProt Q7Z3U7-3_phosphosite_89 (phosphosite position: 89)	0.819 ± 0.38
UniProt P48634_phosphosite_1085 (phosphosite position: 1085)	3.53
UniProt Q05209-2_phosphosite_473 (phosphosite position: 473)	1.54 ± 1.2
UniProt Q8N163-2_phosphosite_675 (phosphosite position: 675)	0.455
SPAG9 phosphosite_185 (phosphosite position: 185) (UniProt O60271)	0.865
UniProt Q5H9R7-2_phosphosite_611 (phosphosite position: 611)	1.95 ± 0.09
TWISTNB phosphosite_304 (phosphosite position: 304) (UniProt Q3B726)	1.55
UniProt Q13136-2_phosphosite_244 (phosphosite position: 244)	1.03
KRI1 phosphosite_628 (phosphosite position: 628) (UniProt Q8N9T8)	-0.122 ± 1.1
UniProt Q96JM3_phosphosite_214 (phosphosite position: 214)	5.13 ± 0.16
UniProt Q53EL6-2_phosphosite_446 (phosphosite position: 446)	0.182 ± 0.37
C7orf25 phosphosite_210 (phosphosite position: 210) (UniProt Q9BPX7)	0.658
LRWD1 phosphosite_212 (phosphosite position: 212) (UniProt Q9UFC0)	0.475 ± 0.79
UniProt P07910-2_phosphosite_240 (phosphosite position: 240)	5.01
GIT1 phosphosite_388 (phosphosite position: 388) (UniProt Q9Y2X7)	0.624 ± 0.44
UniProt Q0GE19-3_phosphosite_268 (phosphosite position: 268)	0.632 ± 2.1

Taken from above (three entries):
Target	phosphopeptide melting temperature shift [°C]
UniProt P07910-2_phosphosite_240 (phosphosite position: 240)	5.01
GIT1 phosphosite_388 (phosphosite position: 388) (UniProt Q9Y2X7)	0.624 ± 0.44
UniProt Q0GE19-3_phosphosite_268 (phosphosite position: 268)	0.632 ± 2.1
